Laboratory results taken from patent US5026836A, “6-sulfenamide, 6-sulfinamide and 6-sulfonamide purines, purine nucleosides, purine nucleotides, pharmaceutical compositions, and processes of making” (priority 1988, dated 1991).
At least one read-out could not be matched to a standard name with certainty.

Tested on: L1210 cells
Assay: Life span of BDF1 mice inoculated ip with 10^6 L1210 leukemia cells
Assay type: in vivo, mouse
Conditions: single QD day 1 ip
Description: As illustrative examples of use of the compounds of the invention the following examples are given. […] These standard tests utilize protocols developed under the auspices of the Developmental Therapeutics Program, Division of Cancer Treatment, National Cancer Institute, Bethesda, Md., U.S.A. Except as otherwise indicated the tests conform to these protocols and are evaluated utilizing criteria defined by the protocols.
Values below 25% are considered capable of producing effective therapy, those below 10% are considered good and those below 5% are considered very good. This expresses the percent of the cells which survived treatment based upon the original cells in the inoculum. Those tests expressed as increases in life span (% ILS) indicate the increased life span of the drug treated group compared to a control group.
As an indicator of reproducible activity, compounds of the invention and other known cancer chemotherapeutic agents were screened against L1210 lymphoid leukemia in vivo utilizing the mouse as a test species. Normal NCI protocols for this test require 10^5 seed cells of the L1210 cell line.
Cytosine Arabinoside must be given every three hours.
Mice were inoculated intraperitoneally on day 0 with a million cells of murine leukemia L1210. Drug was given qd days 1, 4 and 7. […]

Row | Compound | % ILS (DMSO vehicle) [%] | % ILS [%]
1 | NSc1nc(N)nc2nc[nH]c12 [Compound 2, 2-Aminopurine-6-sulfenamide] | 66 | 
2 | NSc1ncnc2c1ncn2[C@H]1C[C@H](O)[C@@H](CO)O1 [Compound 14, 9-(2-Deoxy-β-D-erythro-pentofuranosyl)-9H-purine-6-sulfenamide] |  | 66
